# Reference: PubChem BioAssay (EPA / NIEHS)
# By UniProt entry, the sequences of proteins in these tests, tags left out. Where a name states a change or a piece, a line headed by the entry shows the natural chain unless it says otherwise.
# UniProt P42336, whole entry, looked up: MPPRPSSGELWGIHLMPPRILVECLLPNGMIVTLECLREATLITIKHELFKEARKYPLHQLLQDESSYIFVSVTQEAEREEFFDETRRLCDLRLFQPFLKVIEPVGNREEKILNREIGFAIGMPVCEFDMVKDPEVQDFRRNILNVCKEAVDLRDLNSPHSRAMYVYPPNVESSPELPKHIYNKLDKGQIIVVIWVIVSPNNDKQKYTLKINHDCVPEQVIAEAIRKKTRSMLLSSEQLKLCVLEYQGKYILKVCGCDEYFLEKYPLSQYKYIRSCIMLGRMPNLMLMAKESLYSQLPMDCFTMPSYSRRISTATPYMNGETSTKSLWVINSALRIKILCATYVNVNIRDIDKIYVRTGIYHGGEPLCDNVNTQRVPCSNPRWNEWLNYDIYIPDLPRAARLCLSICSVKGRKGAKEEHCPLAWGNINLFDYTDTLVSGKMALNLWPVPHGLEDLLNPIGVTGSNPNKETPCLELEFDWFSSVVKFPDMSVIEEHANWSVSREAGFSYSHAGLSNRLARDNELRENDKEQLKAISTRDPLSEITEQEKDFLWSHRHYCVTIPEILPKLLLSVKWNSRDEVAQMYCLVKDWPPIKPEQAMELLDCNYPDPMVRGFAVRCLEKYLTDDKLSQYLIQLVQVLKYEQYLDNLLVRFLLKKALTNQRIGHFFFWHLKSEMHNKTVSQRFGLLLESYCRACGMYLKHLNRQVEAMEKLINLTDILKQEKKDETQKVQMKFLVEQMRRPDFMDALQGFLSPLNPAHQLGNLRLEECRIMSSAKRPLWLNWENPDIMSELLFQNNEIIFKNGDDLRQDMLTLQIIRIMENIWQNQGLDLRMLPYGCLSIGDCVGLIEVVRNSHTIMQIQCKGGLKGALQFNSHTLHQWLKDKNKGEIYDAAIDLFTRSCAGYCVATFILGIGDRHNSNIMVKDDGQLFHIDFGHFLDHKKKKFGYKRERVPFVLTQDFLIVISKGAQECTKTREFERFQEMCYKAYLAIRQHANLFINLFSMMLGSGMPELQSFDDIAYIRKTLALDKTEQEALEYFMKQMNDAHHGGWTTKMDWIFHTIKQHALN
# UniProt P67775, whole entry, looked up: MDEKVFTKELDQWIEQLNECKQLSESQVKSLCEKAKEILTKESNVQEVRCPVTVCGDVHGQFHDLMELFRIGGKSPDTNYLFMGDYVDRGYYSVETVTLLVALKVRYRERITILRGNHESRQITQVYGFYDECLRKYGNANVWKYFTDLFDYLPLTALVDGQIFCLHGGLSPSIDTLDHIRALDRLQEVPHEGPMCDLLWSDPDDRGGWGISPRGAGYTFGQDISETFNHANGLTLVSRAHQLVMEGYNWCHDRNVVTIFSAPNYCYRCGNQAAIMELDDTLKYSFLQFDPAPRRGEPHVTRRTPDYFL
# UniProt P14780: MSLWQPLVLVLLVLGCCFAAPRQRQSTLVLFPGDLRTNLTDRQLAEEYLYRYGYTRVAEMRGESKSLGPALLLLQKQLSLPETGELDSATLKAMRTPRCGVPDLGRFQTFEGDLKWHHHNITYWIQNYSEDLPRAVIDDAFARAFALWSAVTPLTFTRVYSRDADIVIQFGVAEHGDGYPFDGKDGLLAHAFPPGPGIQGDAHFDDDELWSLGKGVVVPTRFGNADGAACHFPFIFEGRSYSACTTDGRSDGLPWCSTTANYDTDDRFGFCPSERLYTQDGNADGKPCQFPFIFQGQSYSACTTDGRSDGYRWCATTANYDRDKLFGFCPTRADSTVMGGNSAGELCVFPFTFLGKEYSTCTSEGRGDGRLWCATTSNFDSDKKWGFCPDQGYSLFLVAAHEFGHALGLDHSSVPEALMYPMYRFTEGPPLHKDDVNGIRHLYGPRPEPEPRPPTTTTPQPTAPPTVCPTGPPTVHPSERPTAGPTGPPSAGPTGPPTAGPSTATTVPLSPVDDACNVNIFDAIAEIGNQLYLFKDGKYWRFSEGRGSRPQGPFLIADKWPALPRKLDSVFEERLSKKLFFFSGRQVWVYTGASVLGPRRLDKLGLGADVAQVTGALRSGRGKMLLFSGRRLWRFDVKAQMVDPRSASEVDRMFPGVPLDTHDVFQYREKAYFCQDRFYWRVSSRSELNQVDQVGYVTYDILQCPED
# UniProt P35813: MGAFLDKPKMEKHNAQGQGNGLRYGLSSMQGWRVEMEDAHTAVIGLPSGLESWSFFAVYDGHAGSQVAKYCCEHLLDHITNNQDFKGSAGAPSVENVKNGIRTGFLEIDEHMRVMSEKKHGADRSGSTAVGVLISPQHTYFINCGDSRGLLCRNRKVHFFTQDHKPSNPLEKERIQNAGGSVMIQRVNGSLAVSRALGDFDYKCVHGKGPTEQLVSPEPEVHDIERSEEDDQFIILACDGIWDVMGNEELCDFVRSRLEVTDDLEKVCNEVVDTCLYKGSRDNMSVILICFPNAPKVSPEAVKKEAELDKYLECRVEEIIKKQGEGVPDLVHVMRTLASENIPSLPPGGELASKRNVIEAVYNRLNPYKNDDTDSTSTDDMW
# UniProt Q9Y233: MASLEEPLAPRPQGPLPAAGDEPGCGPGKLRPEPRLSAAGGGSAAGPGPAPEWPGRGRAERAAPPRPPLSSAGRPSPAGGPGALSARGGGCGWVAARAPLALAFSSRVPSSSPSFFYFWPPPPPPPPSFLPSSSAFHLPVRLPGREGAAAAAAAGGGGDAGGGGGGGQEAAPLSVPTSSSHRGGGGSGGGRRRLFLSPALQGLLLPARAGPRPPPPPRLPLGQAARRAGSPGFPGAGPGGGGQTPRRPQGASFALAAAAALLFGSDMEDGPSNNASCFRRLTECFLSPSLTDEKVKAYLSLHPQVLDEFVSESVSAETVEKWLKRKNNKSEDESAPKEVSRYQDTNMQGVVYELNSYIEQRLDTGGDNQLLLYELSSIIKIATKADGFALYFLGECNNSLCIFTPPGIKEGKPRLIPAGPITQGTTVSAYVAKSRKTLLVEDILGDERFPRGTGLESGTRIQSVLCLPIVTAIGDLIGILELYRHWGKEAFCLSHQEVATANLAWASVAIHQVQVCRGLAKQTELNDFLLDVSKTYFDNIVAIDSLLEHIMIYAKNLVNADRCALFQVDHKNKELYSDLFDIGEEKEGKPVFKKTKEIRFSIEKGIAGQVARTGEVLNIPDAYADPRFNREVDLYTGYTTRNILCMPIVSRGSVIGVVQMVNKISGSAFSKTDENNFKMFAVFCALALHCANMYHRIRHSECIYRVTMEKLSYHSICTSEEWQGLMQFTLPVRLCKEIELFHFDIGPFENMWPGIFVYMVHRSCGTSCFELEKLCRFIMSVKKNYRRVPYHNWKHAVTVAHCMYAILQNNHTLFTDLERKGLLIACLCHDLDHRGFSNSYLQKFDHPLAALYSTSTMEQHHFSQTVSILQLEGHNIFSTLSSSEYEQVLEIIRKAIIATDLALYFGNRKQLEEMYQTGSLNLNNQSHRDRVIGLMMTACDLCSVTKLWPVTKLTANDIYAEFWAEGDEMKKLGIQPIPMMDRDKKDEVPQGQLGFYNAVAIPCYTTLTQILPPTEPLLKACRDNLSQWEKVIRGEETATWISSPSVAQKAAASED
# UniProt P62136, whole entry, looked up: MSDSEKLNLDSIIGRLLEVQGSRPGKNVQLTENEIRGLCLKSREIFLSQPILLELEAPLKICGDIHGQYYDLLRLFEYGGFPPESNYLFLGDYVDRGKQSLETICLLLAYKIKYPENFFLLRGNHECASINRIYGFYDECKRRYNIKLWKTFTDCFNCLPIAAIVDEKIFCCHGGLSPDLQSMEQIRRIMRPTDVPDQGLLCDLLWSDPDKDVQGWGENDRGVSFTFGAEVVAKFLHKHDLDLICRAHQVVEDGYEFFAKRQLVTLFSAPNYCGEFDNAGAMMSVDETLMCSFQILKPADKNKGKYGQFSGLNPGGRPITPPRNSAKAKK
# UniProt P60484: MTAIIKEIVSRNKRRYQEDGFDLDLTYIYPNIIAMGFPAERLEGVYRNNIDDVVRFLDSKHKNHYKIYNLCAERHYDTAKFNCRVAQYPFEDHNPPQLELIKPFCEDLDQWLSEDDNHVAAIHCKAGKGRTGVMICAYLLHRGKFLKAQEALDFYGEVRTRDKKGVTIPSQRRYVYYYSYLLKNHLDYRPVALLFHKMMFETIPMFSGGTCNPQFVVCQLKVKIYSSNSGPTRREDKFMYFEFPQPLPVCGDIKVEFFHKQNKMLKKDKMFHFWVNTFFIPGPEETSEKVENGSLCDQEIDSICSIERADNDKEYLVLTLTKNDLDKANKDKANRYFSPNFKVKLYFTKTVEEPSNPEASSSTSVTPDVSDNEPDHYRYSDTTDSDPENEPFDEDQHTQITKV
# UniProt P18031: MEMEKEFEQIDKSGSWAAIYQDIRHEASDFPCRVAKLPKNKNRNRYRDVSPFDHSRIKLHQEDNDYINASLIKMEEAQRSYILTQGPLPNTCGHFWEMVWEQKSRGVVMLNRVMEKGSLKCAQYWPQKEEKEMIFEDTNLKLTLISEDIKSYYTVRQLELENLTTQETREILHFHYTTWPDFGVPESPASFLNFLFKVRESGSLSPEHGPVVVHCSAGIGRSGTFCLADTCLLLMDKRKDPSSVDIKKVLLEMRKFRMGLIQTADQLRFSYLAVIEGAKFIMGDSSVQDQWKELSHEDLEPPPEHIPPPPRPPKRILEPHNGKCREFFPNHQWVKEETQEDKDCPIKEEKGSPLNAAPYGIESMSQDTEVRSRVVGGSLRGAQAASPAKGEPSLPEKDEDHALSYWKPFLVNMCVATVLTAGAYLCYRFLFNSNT
# Where “and” joins values, the source holds several entries; their conditions need not be identical. Identical values can stand only once. Inconclusive means that the source gave no clear call. Such entries were picked first, then a sample of the others. For some of these results: Potencies beside an inconclusive call are fits to weak or partial responses and may not hold up. Calls of active or inactive are those of the source. How the source made its calls: active means hit-call score of the fitted dose curve at least 0.9, where 1 is the maximum; inconclusive means response in the unintended direction; inactive means score below 0.9.
# Columns and labels:
# [1] = target: human Phosphodiesterase 5 (PDE5), PDE5A (gene 8654) (UniProt O76074); assay: NVS_ENZ_hPDE5: NovaScreen (NVS) Enzymatic Assay for human Phosphodiesterase 5 (PDE5) (AID 2283194)
# Procedure, shortened: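 Screening began in duplicate at 25 uM, with actives taken into concentration-response. Enzyme activity of recombinant PDE5 toward its substrate was measured at 1 h by fluorescence mobility-shift detection, relative to DMSO controls.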
# [2] = target: human Phosphoinositide 3-kinase alpha (PI3Ka), PIK3CA (gene 5290) (UniProt P42336); assay: NVS_ENZ_hPI3Ka: NovaScreen (NVS) Enzymatic Assay for human Phosphoinositide 3-kinase alpha (PI3Ka) (AID 2283196)
# Procedure, shortened: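 Enzyme activity as fluorescence after mobility-shift separation of substrate and product, 1 h reaction, recombinant human PI3Kα; concentration-response to 50 uM max for chemicals passing a 25 uM duplicate screen.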
# PPP2CA (gene 5515) = PPP2CA (gene 5515) (UniProt P67775); assay: NVS_ENZ_hPPP2CA: NovaScreen (NVS) Enzymatic Assay for human Protein Phosphatase 2 Aatalytic subunit Alpha (PPP2CA) (AID 2283199)
# Procedure, shortened: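 Cell-free phosphatase activity: fluorescent substrate turnover by recombinant human enzyme, resolved by mobility shift at 1.33 h. Compounds passing the 25 uM duplicate primary screen were rerun in singleton series with a 50 uM top concentration.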
# [3] = target: cAMP-dependent protein kinase catalytic subunit alpha (Homo sapiens) (UniProt P17612); assay: NVS_ENZ_hPKA: NovaScreen (NVS) Enzymatic Assay for human Protein Kinase A (PKA) (AID 2283192)
# Procedure, shortened: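 Cell-free kinase activity read by fluorescence after mobility-shift separation of substrate and product, 1 h post-dosing. Single-concentration duplicate screen (25 uM) preceded singleton concentration series (top 50 uM); loss of signal versus DMSO.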
# [4] = target: human Matrix Metalloproteinase-9 (MMP9), MMP9 (gene 4318) (UniProt P14780); assay: NVS_ENZ_hMMP9: NovaScreen (NVS) Enzymatic Assay for human Matrix Metalloproteinase-9 (MMP9) (AID 2283190);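 further: cell-free recombinant MMP9 protease activity read by fluorescent substrate signal; active means inhibition seen as loss of fluorescence signal versus DMSO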
# Procedure, shortened: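 Cell-free fluorescence-intensity enzyme activity assay using extracted protein, read 1 h after dosing. Loss of signal versus DMSO baseline indicates inhibition; primary screen in duplicate at 25 uM, actives followed up in concentration series.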
# [5] = target: human Protein Phosphatase, Mg2+/Mn2+ Dependent 1A (PPM1A), PPM1A (gene 5494) (UniProt P35813); assay: NVS_ENZ_hPPM1A: NovaScreen (NVS) Enzymatic Assay for human Protein Phosphatase, Mg2+/Mn2+ Dependent 1A (PPM1A) (AID 2283198)
# Procedure, shortened: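 Primary screen in duplicate at 25 uM, with actives then titrated to a maximum of 50 uM. Recombinant PPM1A dephosphorylation of fluorescent substrate measured at 1 h, with substrate and product separated by mobility shift; inhibition fitted against DMSO.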
# [6] = target: human Phosphodiesterase 10 (PDE10), PDE10A (gene 10846) (UniProt Q9Y233); assay: NVS_ENZ_hPDE10: NovaScreen (NVS) Enzymatic Assay for human Phosphodiesterase 10 (PDE10) (AID 2283195)
# Procedure, shortened: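 Readout is fluorescence intensity following electrophoretic mobility-shift separation, 1 h after dosing of isolated PDE10A protein. Hits meeting a preset threshold at 25 uM went to concentration series (max 50 uM), analysed relative to DMSO.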
# [7] = target: Serine/threonine-protein phosphatase PP1-alpha catalytic subunit (Homo sapiens) (UniProt P62136); assay: NVS_ENZ_hPPP1CA: NovaScreen (NVS) Enzymatic Assay for human Protein Phosphatase 1 Aatalytic subunit Alpha (PPP1CA) (AID 2283200)
# Procedure, shortened: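 Chemicals were first screened in duplicate at 25 uM, and those passing threshold (e.g. 30% inhibition) were run as concentration series to 50 uM. Cell-free recombinant protein, 1.33 h read, fluorescent substrate/product mobility-shift detection, normalised to DMSO.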
# [8] = target: human Phosphatase and Tensin Homolog (PTEN), PTEN (gene 5728) (UniProt P60484); assay: NVS_ENZ_hPTEN: NovaScreen (NVS) Enzymatic Assay for human Phosphatase and Tensin Homolog (PTEN) (AID 2283203)
# Procedure, shortened: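 Loss of fluorescent product signal after mobility-shift separation reports PTEN activity, recombinant human enzyme, 1 h after compound addition. Single 25 uM duplicate screen, then concentration-response on actives; DMSO baseline.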
# [9] = target: human Protein Tyrosine Phosphatase Non-receptor Type 1 (PTPN1), PTPN1 (gene 5770) (UniProt P18031); assay: NVS_ENZ_hPTPN1: NovaScreen (NVS) Enzymatic Assay for human Protein Tyrosine Phosphatase Non-receptor Type 1 (PTPN1) (AID 2283201)
# Procedure, shortened: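 Chemicals were first tested in duplicate at 25 uM, and those passing threshold went on to singleton concentration series topping at 50 uM. Recombinant enzyme, specific substrate, product separated by mobility shift, fluorescence read at 1.33 h; activity loss relative to DMSO.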
smiles,measurement,setting,value
CCCN(CCOc1c(Cl)cc(Cl)cc1Cl)C(=O)n1ccnc1,AC50,[1],active: 9.58 µM
CC[C@H](C)[C@H]1O[C@]2(C=C[C@@H]1C)C[C@@H]1C[C@@H](C/C=C(\C)[C@@H](O[C@H]3C[C@H](OC)[C@@H](O[C@H]4C[C@H](OC)[C@@H](NC)[C@H](C)O4)[C@H](C)O3)[C@@H](C)/C=C/C=C3\CO[C@@H]4[C@H](O)C(C)=C[C@@H](C(=O)O1)[C@]34O)O2,AC50,[1],active: 39.3 µM
same,AC50,[2],active: 7.94 µM
same,AC50,PPP2CA (gene 5515),active: 16.8 µM
Nc1c(Cl)cc([N+](=O)[O-])cc1Cl,outcome,[3],inactive
O=C(Nc1ccccc1)Nc1cnns1,AC50,[4],inconclusive: 4.05 µM
Clc1ccc(C2(Cn3cncn3)CC(Br)CO2)c(Cl)c1 (stereo not drawn),outcome,[4],inactive
O=C(O)C1C(C(=O)O)C2(Cl)C(Cl)=C(Cl)C1(Cl)C2(Cl)Cl (stereo not drawn),AC50,[1],inconclusive: 1.17 µM
CCN(CC)c1nc(C)cc(OP(=S)(OC)OC)n1,outcome,[4],inactive
CN1CSC(=S)N(C)C1,outcome,[4],inactive
CCC(C)(c1ccc(O)cc1)c1ccc(O)cc1,outcome,[1],inactive
O=C1C2(Cl)C3(Cl)C4(Cl)C(Cl)(Cl)C5(Cl)C3(Cl)C1(Cl)C5(Cl)C24Cl (stereo not drawn),AC50,[1],inconclusive: 0.474 µM
same,AC50,[5],inconclusive: 23.8 µM
Clc1ccc(Cl)cc1,AC50,[3],inconclusive: 25 µM
same,AC50,[1],inconclusive: 0.494 µM
COc1cc(-c2ccc(N)c(OC)c2)ccc1N,AC50,[1],inconclusive: 0.666 µM
O=S(=O)(O)C(F)(F)C(F)(F)C(F)(F)C(F)(F)F,AC50,[1],inconclusive: 0.0301 µM
ClC(Cl)=C(c1ccc(Cl)cc1)c1ccc(Cl)cc1,outcome,[1],inactive
OC[P+](CO)(CO)CO,AC50,[4],active: 1.27 µM and active: 3.16 µM
same,AC50,[6],active: 9.04 µM
CCCOCC(=Nc1ccc(Cl)cc1C(F)(F)F)n1ccnc1,AC50,[1],inconclusive: 6.12 µM
CCOP(=S)(OCC)SCSP(=S)(OCC)OCC,AC50,[1],inconclusive: 0.336 µM
Oc1c(Cl)c(Cl)c(Cl)c(Cl)c1Cl,outcome,[1],inactive
CCC(C)(C)c1ccc(O)c(C(C)(C)CC)c1,AC50,[1],inconclusive: 0.123 µM
C[C@]12CCC(=O)C=C1CC[C@@H]1[C@@H]2CC[C@]2(C)C(=O)CC[C@@H]12,AC50,[1],active: 12.3 µM
Cc1ccc(N)cc1,AC50,[1],inconclusive: 25 µM
C=CC(=O)NCNC(=O)C=C,AC50,[1],inconclusive: 25 µM
N#CCCCCC#N,outcome,[1],inactive
COC(=O)Nc1cccc(OC(=O)Nc2cccc(C)c2)c1,outcome,[1],inactive
Oc1cc(Cl)ccc1Oc1ccc(Cl)cc1Cl,outcome,[4],inactive
same,outcome,[1],inactive
same,AC50,[2],inconclusive: 0.174 µM
same,outcome,PPP2CA (gene 5515),inactive
same,AC50,[7],inconclusive: 8.3 µM
same,AC50,[8],inconclusive: 0.0794 µM
CC(C)N(C(=O)CCl)c1ccccc1,AC50,[1],inconclusive: 25 µM
O=C1c2ccccc2C(=O)N1SC(Cl)(Cl)Cl,AC50,[3],inconclusive: 25 µM
same,AC50,[2],inconclusive: 25 µM
Cc1cc2c3c(c1)C(c1ccccc1)=N[C@@H](NC(=O)c1ccncc1)C(=O)N3CC2,AC50,[1],active: 3.87 µM
same,outcome,[5],inactive
COc1ccc(O)c(C(C)(C)C)c1,AC50,[1],inconclusive: 25 µM
CCC(C)(C)c1ccc(O)cc1,AC50,[1],inconclusive: 0.231 µM
N#CC(CCc1ccc(Cl)cc1)(Cn1cncn1)c1ccccc1 (stereo not drawn),AC50,[1],inconclusive: 0.0784 µM
CCCN(CCC)c1c([N+](=O)[O-])cc(S(N)(=O)=O)cc1[N+](=O)[O-],outcome,[1],inactive
CCNS(=O)(=O)C(F)(F)C(F)(F)C(F)(F)C(F)(F)C(F)(F)C(F)(F)C(F)(F)C(F)(F)F,outcome,[1],inactive
same,AC50,[7],inconclusive: 24.1 µM
N#Cc1cccnc1,AC50,[7],inconclusive: 25 µM
O=C(O)C(F)(F)C(F)(F)C(F)(F)C(F)(F)C(F)(F)F,outcome,[9],inactive
CCCN(CCC)N=O,AC50,[9],inconclusive: 42.4 µM
CC(=O)[O][Hg][c]1ccccc1,AC50,[9],active: 9.68 µM
O=S(=O)(O)C(F)(F)C(F)(F)C(F)(F)C(F)(F)C(F)(F)C(F)(F)F,outcome,[8],inactive
CC(C)(C)OOC(C)(C)C,outcome,[8],inactive
ClCc1ccccc1CCl,AC50,[8],inconclusive: 0.0829 µM
Cn1[nH]nnc1=S,AC50,[8],active: 1.08 µM
COc1nn(C(=O)NS(=O)(=O)c2ccccc2OC(F)(F)F)c(=O)n1C,AC50,[8],active: 9.29 µM
ClC1(Cl)C2(Cl)C3(Cl)C4(Cl)C(Cl)(Cl)C5(Cl)C3(Cl)C1(Cl)C5(Cl)C24Cl (stereo not drawn),AC50,[7],inconclusive: 25 µM
same,AC50,[8],inconclusive: 25 µM
CC(C)N1C(=O)N(c2ccccc2)CSC1=NC(C)(C)C,outcome,[9],inactive
